Results taken from patent US9945845B2, “Methods of screening using amphibians” (priority 2009, dated 2018).
Entries after “also recorded” stand apart in the source; their conditions may differ. Structures can show the parent of a compound that is named as a salt. Where two headings read alike, the source gives them in different places. For some of these results: At least one read-out could not be matched to a standard name with certainty. For some of these results: For at least one compound, name, drawing or mass did not settle the structure. Some of these results come from one statement about several compounds together.

Experiments:
[1] = system: blood vessel development and/or lymphangiogenesis in Xenopus embryos; assay type: in vivo, Xenopus laevis; details: for ALH phenotype: anterior lymph heart; for ALS phenotype: anterior lymph sac; for PLV phenotype: posterior lymph vessels; for ISV phenotype: intersomitic vessels; for PCV phenotype: posterior cardinal vein; for VVN phenotype: vitelline vein network; for blood vessel development phenotype (apj expression, in words): 20 μM from stage 31, fixed at stage 35/36
Description: All chemicals were purchased from Sigma and 10-mM stock solutions in DMSO were prepared. Chemicals were used at a final concentration of 20 μM in screening medium to treat homozygous albino Xenopus embryos, which lack natural pigmentation. Chemical treatments of embryos (n=7 per well) was initiated at stage 31 (37 hpf) and terminated at stages 35/36 (50 hpf) or 42 (80 hpf). Embryos were fixed in 4% paraformaldehyde and processed for whole mount in situ hybridization.
Where albino embryos were used, the bleaching step was omitted. Semi-automated whole mount in situ hybridizations were performed using the Biolane HTI machine (Hölle & Hüttner AG, Germany). […] Images were captured using a stereomicroscope (SteREO Lumar V12; Carl Zeiss) equipped with a digital camera (AxioCam Color; Carl Zeiss). Composite figures were organized and labeled using Adobe Photoshop CS2 and Adobe Illustrator CS software.
Edema formation or late-stage lethality may result from excretory system defects, (cardio)vascular and/or lymphatic vascular pathologies. […] Embryos were fixed for in situ hybridization either at stage 35/36 to analyze vasculogenesis and intersomitic vein angiogenesis defects or at stage 42 to evaluate possible defects in lymph vessel development (FIGS. 3-5).

[2] = system: HUVEC; assay: HUVEC tube formation assay; assay type: cell-based, human; details: 1 μM in 0.1% DMSO
Description: (§1) Human umbilical vein endothelial cells (HUVEC) were purchased from PromoCell. […] HUVEC and LEC were cultured in endothelial basal medium EBM (Cambrex) supplemented with 20% fetal bovine serum (Invitrogen), antibiotic-antimycotics (100 U/ml penicillin, 100 μg/ml streptomycin, 250 ng/ml amphotericin; Invitrogen). 2 mM L-glutamine (Invitrogen), 10 μg/ml hydrocortisone (Fluka) and 25 μg/ml N^6,2′-O-dibutyryladenosine 3′,5′-cyclic monophosphate sodium salt (Fluka) for up to eleven passages.
(§2) The effect of the selected chemicals on the formation of tube-like structures was performed as follows. […] After overnight incubation at 37° C. the treated cell cultures were fixed with 4% paraformaldehyde. Each chemical treatment was performed in triplicate and the experiment was repeated at least three times. Three representative images of hotspots with tube-like structures were taken per well using a digital camera (AxioCam MRm, Carl Zeiss) mounted on an inverted microscope (Axiovert 200M, Carl Zeiss). The length of the tube-like structures was measured using the IPLab software (BD Biosciences). For each experimental condition, results are represented as average total tube length (μm) per area (three image fields).
(§3) The effects of the selected compounds on endothelial tube formation was assessed after over treatment of LEC and HUVEC cultures at a compound concentration of 1 μM in 0.1% DMSO. The length of the tube-like structures was measured using the IPLab software.

[3] = system: Xenopus embryos; details: for Onset (NF) / edema or other phenotype in compound-treated Xenopus embryos/tadpoles (in words): 20 μM, 1% DMSO; for Cardiac phenotype: ¶ = the heart chambers were enlarged
Description: 10-μl aliquots of the chemicals were transferred from the mother plates with a liquid handling robot (Aquarius, Tecan) into 96-well tissue culture plates to generate diluted stock plates (2 mM in DMSO; 50 μl final volume). […] Once embryos reached stage 31 (37 hpf), 10-μl aliquots of the diluted chemicals were added to the wells. […] Negative control wells contained embryos in screening medium and 0.1×MMR only. Embryos were treated with the chemicals in a humidified incubator at 23° C. over a timeframe of 4 days. Embryos were manually scored for the presence of edema or other morphological phenotypes using a teaching dissecting microscope (SV6; Carl Zeiss). Two investigators performed separately the scoring daily at stages 39 (56 hpf), 41 (76 hpf), 45 (98 hpf), and 47 (120 hpf). Dead embryos were removed and 100 μl of water was added daily to each well to compensate for fluid evaporation. […] For imaging at the end of the experiments. Xenopus tadpoles were anesthetized with 0.05% tricaine (Sigma #A5040) in 0.1×MMR. Images were captured using a stereomicroscope (SteREO Lumar V12; Carl Zeiss) equipped with a digital camera (AxioCam Color; Carl Zeiss).
Xenopus late tailbud embryos at stage 31 (37 hpf) were selected for compound treatment. […] Embryos were arrayed into 48-well dishes (five per well) and treated with test compounds at a concentration of 20 μM in the presence of 1% DMSO. […] All 48-well dishes also contained replicates of negative controls (1% DMSO). Embryos were monitored daily over a period of four days for edema formation. In addition, drug-induced lethality and other externally visible phenotypes were scored. On average, 320 compounds were screened per week.

[4] = system: HUVEC; assay: HUVEC cell proliferation assay; assay type: cell-based, human; details: 10 μM in 0.1% DMSO, 48 hours
Description: as §1
(§4) The intensity of fluorescence, which is proportional to the number of viable cells, was measured using a microplate reader (SpectraMax Gemini EM; Molecular Devices). The chemical treatments were performed in five replicates.
(§5) The cell proliferation assays were performed by treating the endothelial cell cultures with compounds at a screening dose of 10 μM in 0.1% DMSO for 48 hours (FIG. 6a; Table 10).

[5] = system: LEC; assay: LEC cell proliferation assay; assay type: cell-based, human; details: 10 μM in 0.1% DMSO, 48 hours
Description: as §1, §4, §5

[6] = system: LEC; assay type: cell-based, human; details: 1 μM in 0.1% DMSO
Description: as §1, §2, §3

[7] = onset of edema, treatment from stage 31, Nieuwkoop & Faber stage

## CCOC(=O)C1=C(C)NC(C)=C(C(=O)OC)C1c1cccc(Cl)c1Cl (stereo not shown) [Felodipine]
[1]; 20 μM from stage 31, fixed at stage 42
  lymph vessel development phenotype (vegfr3 expression, in words): inhibiting preferentially lymphatic vascular development; also recorded: abnormal, dysplastic lymphatic vessel sprouting
[1]; Xenopus embryos
  Blood vessel phenotype: normal
  ALH phenotype: dysplastic
  ALS phenotype: normal
  PLV phenotype: normal
[2]
  effect on HUVEC tube formation (in words): blocked tube formation preferentially in HUVEC cultures

## Cc1cc(N)c2ccccc2[n+]1CCCCCCCCCC[n+]1c(C)cc(N)c2ccccc21.[Cl-].[Cl-] [Dequalinium dichloride, 1,1′-Decamethylenebis(4-aminoquinaldinium) dichloride]
[3]; [7]
  Onset (NF): 39 NF

## Nc1ccc2c3c(cccc13)C(=O)NC2=O [4-Amino-1,8-naphthalimide]
[4]; listed as naphthalimide
  HUVEC proliferation: 115-150 % of control

## N#CC(=Cc1ccc(O)c(O)c1)C(=O)Nc1ccccc1 [Tyrphostin AG 494, N-Phenyl-3,4-dihydroxybenzylidenecyanoacetamide]
[3]; [7]
  Onset (NF): 39 NF

## COC(=O)Nc1nc2ccc(C(=O)c3cccs3)cc2[nH]1 [Nocodazole]
[5]
  LEC proliferation: − (−, moderate inhibition (50-85% of control):)
[4]
  HUVEC proliferation: − (−, moderate inhibition (50-85% of control):)

## Cl.c1ccc(CN2CCC3(CCCc4ccccc43)CC2)cc1 [L-687, 384 hydrochloride]
[4]; listed as L-687,384
  HUVEC proliferation: 115-150 % of control
[2]
  HUVEC tube formation (tube length): 50-85 % of control
[6]
  LEC tube formation (tube length): 50-85 % of control

## O=c1[nH]c2ccccc2n1C1CCN(CCCC(c2ccc(F)cc2)c2ccc(F)cc2)CC1 [Pimozide]
[3]; embryonic stage
  Cardiac phenotype: 41/42¶

## O=C1Cc2c([nH]c3ccc(Br)cc23)-c2ccccc2N1 [Kenpaullone]
[3]; [7]
  Onset (NF): 45 NF

## Nc1ncnc2c1c(-c1ccc(Oc3ccccc3)cc1)cn2C1CCCC1 [7-Cyclopentyl-5-(4-phenoxy)phenyl-7H-pyrrolo[2,3-d]pyrimidin-4-ylamine]
[2]
  HUVEC tube formation (tube length): < 35 % of control
[6]
  LEC tube formation (tube length): < 35 % of control

## Nc1nc2ccc(OC(F)(F)F)cc2s1 [Riluzole, 2-Amino-6-(trifluoromethoxy)-benzothiazole]
[3]; [7]
  Onset (NF): 45 NF

## Oc1c2ccccc2c2c3c(cccc13)N=N2 [SP600125, 1,9-Pyrazoloanthrone]
[1]; Xenopus embryos
  ALH phenotype: impaired
  ALS phenotype: impaired
  ISV phenotype: stunted
  PCV phenotype: normal
  PLV phenotype: impaired
  VVN phenotype: dyspiastic
[6]
  effect on LEC tube formation (in words): preferentially blocked tube formation in LEC rather than HUVEC cultures
[3]; treatment from stage 31
  edema or other phenotype in compound-treated Xenopus embryos/tadpoles (in words): causing lethality

## COC1=C(OC)C(=O)c2ccccc2C1=O [2,3-Dimethoxy-1,4-naphthoquinone]
[3]; onset of other phenotypic defects
  Onset (NF): 41 NF

## Cl.Cl.Fc1ccc(C(OCCN2CCN(CCCc3ccccc3)CC2)c2ccc(F)cc2)cc1 [GBR-12909 dihydrochloride, 1-[2-[bis(4-Fluorophenyl)methoxy]ethyl]-4-[3-phenylpropyl]piperazine dihydrochloride]
[3]; [7]
  Onset (NF): 45 NF

## COCCOC(=O)C1=C(C)NC(C)=C(C(=O)OC(C)C)C1c1cccc([N+](=O)[O-])c1 (stereo not shown) [Nimodipine, 1,4-Dihydro-2,6-dimethyl-4-(3-nitrophenyl)-3,5-pyridinecarboxylic acid 2-methoxyethyl 1-methylethyl ester]
[3]; embryonic stage
  Cardiac phenotype: 41/42¶
[3]; embryonic stage, ‡ = edemas also detected in the gut
  Type of edema Ventral: 41/42‡

## O=c1[nH]c2ccccc2c2ccccc12 [6(5H-Phenanthridinone, 6(5H)-Phenanthridinone]
[3]; [7]
  Onset (NF): 45 NF

## CCn1cc(C(=O)O)c(=O)c2ccc(C)nc21.[Na] [Nalidixic acid sodium, 1-Ethyl-1,4-dihydro-7-methyl-4-oxo-1,8-naphthyridine-3-carboxylic acid sodium]
[3]; onset of pigmentation defects
  Onset (NF): 47 NF

## CN(C)c1ccc(C=C2C(=O)Nc3ccccc32)cc1 [SU 4312, 3-(4-Dimethylaminobenzylidenyl)-2-indolinone]
[2]
  HUVEC tube formation (tube length): 85-115 % of control
[6]
  LEC tube formation (tube length): 85-115 % of control

## CN(C)c1cc2c(Nc3ccc4c(cnn4Cc4ccccc4)c3)ncnc2cn1 [GW2974, N4-(1-Benzyl-1H-indazol-5-yl)-N6,N6-dimethyl-pyrido[3,4-d)pyrimidine4-4,6-diamine]
[2]
  HUVEC tube formation (tube length): 50-85 % of control
[6]
  LEC tube formation (tube length): 50-85 % of control

## O=C1NCN(c2ccccc2)C12CCN(CC1COc3ccccc3O1)CC2 (stereo not shown) [Spiroxatrine]
[3]; onset of pigmentation defects
  Onset (NF): 45 NF

## CC1=C(/C=C/C(C)=C/C=C/C(C)=C/C(=O)O)C(C)(C)CCC1 [Retinoic acid]
[1]
  blood vessel development phenotype (apj expression, in words): potent inhibitors of developmental angiogenesis
[1]; Xenopus embryos
  ISV phenotype: impaired
  PCV phenotype: nominal
  VVN phenotype: hypoplastic
[3]; [7]
  Onset (NF): 39 NF

## C=C[C@@]1(C)CC(=O)[C@]2(O)[C@@]3(C)[C@@H](O)CCC(C)(C)[C@@H]3[C@H](O)[C@H](OC(C)=O)[C@@]2(C)O1 [Forskolin]
[1]
  blood vessel development phenotype (apj expression, in words): potent inhibitors of developmental angiogenesis
[1]; Xenopus embryos
  ISV phenotype: impaired
  PCV phenotype: normal
  VVN phenotype: hypoplastic
[3]; treatment from stage 31
  edema or other phenotype in compound-treated Xenopus embryos/tadpoles (in words): pericardial, ventral, and proctodeal edemas

## COc1ccc(CCCOC(Cn2ccnc2)c2ccc(OC)cc2)cc1.Cl (stereo not drawn) [SKF 96365, 1-(beta-[3-(4-Methoxyphenyl)propoxy]-4-methoxyphenethyl)-1H-imidazole hydrochloride]
[3]; [7]
  Onset (NF): 39 NF

## COc1cc2ncnc(Nc3cccc(Cl)c3)c2cc1OC [Tyrphostin AG 1478, N-(3-Chlorophenyl)-6,7-dimethoxy-4-quinazolinamine]
[3]; [7]
  Onset (NF): 45 NF

## CN1CCC[C@@H]1CCO[C@](C)(c1ccccc1)c1ccc(Cl)cc1 [Clemastine fumarate]
[3]; [7]
  Onset (NF): 45 NF

## Oc1cc(-c2ccccc2)nc2nc(Cl)ccc12 [7-Chloro-4-hydroxy-2-phenyl-1,8-naphthyridine]
[5]
  LEC proliferation: − − (− −, strong inhibition (<50% of control);)
[4]
  HUVEC proliferation: − − (− −, strong inhibition (<50% of control);)
[3]; [7]
  Onset (NF): 39 NF

## O=C(O)CCCCC1CCSS1 (racemic) [(±)alpha-Lipoic Acid, (±)-1,2-Dithiolane-3-pentanoic acid]
[3]; [7]
  Onset (NF): 39 NF
